In publication PMC5746128:
These are yes or no findings as the source states them, for the method shown. Binding seen in cells or lysates may run through a third protein. Some binding calls cover weakened binding; strength is not graded here.

How the values were obtained:
[1] = target: T1, Annexin A4 (human (endogenous in RMG-1 and ES-2)), P09525; test: co-IP; lysates of RMG-1 and ES-2 cells; ANXA4 precipitated with rabbit anti-human ANXA4 and NF-kB p50 detected with mouse anti-human NF-kB p50, and the reverse (NF-kB p50 precipitated, ANXA4 detected); rabbit IgG as negative control; also ES-2-FUT1 and ES-2-A4-O stable transfectants compared with ES-2 (IP of ANXA4); settings: remark: other sources report otherwise
T1 chain: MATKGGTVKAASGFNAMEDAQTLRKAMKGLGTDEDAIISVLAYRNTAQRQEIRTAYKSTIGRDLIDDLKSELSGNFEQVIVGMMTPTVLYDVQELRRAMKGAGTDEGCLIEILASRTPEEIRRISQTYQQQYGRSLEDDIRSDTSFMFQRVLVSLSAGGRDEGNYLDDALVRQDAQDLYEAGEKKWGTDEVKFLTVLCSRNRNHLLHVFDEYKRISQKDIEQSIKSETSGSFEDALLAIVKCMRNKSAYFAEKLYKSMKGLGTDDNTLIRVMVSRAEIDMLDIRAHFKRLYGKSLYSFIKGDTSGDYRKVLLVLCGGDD

[2] = target: T2, ANXA4 in ES-2-A4-O cells (ES-2 cells transfected with ANXA4 gene), P09525; test: as above; settings: remark: other sources report otherwise
T2 chain: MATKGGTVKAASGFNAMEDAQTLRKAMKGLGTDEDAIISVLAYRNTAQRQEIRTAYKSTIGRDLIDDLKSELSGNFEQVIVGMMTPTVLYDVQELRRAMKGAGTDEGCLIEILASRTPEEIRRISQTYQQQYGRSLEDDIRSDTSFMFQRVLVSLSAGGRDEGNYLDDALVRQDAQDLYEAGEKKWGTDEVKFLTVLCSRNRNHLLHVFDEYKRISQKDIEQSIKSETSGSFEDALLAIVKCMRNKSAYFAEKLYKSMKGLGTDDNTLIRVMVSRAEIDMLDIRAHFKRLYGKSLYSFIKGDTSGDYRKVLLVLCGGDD

B1: NF-kB p50, P19838 1-433 (protein)
chain: MAEDDPYLGRPEQMFHLDPSLTHTIFNPEVFQPQMALPTDGPYLQILEQPKQRGFRFRYVCEGPSHGGLPGASSEKNKKSYPQVKICNYVGPAKVIVQLVTNGKNIHLHAHSLVGKHCEDGICTVTAGPKDMVVGFANLGILHVTKKKVFETLEARMTEACIRGYNPGLLVHPDLAYLQAEGGGDRQLGDREKELIRQAALQQTKEMDLSVVRLMFTAFLPDSTGSFTRRLEPVVSDAIYDSKAPNASNLKIVRMDRTAGCVTGGEEIYLLCDKVQKDDIQIRFYEEEENGGVWEGFGDFSPTDVHRQFAIVFKTPKYKDINITKPASVFVQLRRKSDLETSEPKPFLYYPEIKDKEEVQRKRQKLMPNFSDSFGGGSGAGAGGGGMFGSGGGGGGTGSTGPGYSFPHYGFPTYGGITFHPGTTKSNAGMKHG
modifications: here or on the partner: Lewis y antigen (fucosylated oligosaccharide) on ANXA4, site not stated
- binding [1]: binds
- binding [2]: binds
